Residue numbers refer to the chain shown, from its start. Read-outs that look alike come from different tables or passages of the source. Results are given in words; binding and its absence hold for the method and conditions named. Some results given as binding are weak or reduced against the parent protein; the word gives no strength.
B1: recombinant CML13 (protein, UniProt Q94AZ4 1-148)
chain: MGKDGLSDDQVSSMKEAFMLFDTDGDGKIAPSELGILMRSLGGNPTQAQLKSIIASENLSSPFDFNRFLDLMAKHLKTEPFDRQLRDAFKVLDKEGTGFVAVADLRHILTSIGEKLEPNEFDEWIKEVDVGSDGKIRYEDFIARMVAK
B2: biotinylated CML13 (protein, UniProt Q94AZ4 1-148)
chain: B1 chain
modifications: biotin, covalently conjugated (biotin-NHS ester), sites not stated
B3: biotinylated CML14 (protein, UniProt Q8VZ50 1-148)
chain: B1 chain with G2S, D8N, Q47E, A48S, A55T, S56T, E117Q, N119S
modifications: biotin, covalently conjugated (biotin-NHS ester), sites not stated
B4: recombinant CML14 (protein, UniProt Q8VZ50 1-148)
chain: B1 chain with G2S, D8N, Q47E, A48S, A55T, S56T, E117Q, N119S

By UniProt entry, the sequences of proteins in these tests, tags left out. Residues count along the entry.
UniProt Q8VZ50: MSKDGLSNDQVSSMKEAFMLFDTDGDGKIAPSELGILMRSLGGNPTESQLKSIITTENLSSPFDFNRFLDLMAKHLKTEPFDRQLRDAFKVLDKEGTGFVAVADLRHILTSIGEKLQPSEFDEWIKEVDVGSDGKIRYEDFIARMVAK
UniProt P02769, residues 25-607: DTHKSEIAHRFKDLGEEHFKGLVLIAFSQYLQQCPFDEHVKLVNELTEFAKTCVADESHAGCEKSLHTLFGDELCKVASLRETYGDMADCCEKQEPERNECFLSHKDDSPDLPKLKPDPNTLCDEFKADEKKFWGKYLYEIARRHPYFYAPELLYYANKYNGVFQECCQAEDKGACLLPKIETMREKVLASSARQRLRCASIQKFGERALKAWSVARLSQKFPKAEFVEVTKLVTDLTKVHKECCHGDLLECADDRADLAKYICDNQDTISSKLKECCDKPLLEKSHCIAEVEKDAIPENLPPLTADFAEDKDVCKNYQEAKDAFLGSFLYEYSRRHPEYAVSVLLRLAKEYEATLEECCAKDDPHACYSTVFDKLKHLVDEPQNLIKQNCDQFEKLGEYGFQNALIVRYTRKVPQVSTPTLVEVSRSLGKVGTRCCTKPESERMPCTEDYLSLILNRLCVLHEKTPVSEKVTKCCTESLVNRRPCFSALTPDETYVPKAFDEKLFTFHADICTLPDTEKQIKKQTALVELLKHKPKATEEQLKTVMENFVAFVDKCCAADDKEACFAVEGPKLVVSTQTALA

What was measured:
[1] = biological target: IQD14-IQ2 synthetic peptide, residues 344-367 (Arabidopsis thaliana); test: ITC
[2] = biological target: IQD14-IQ2 synthetic peptide, residues 344-367 (Arabidopsis thaliana); test: ITC; remark: listed apart in the source
BSA [3] = biological target: BSA (UniProt P02769); test: far-Western, overlay or dot blot
BSA [4] = biological target: BSA (UniProt P02769); test: far-Western, overlay or dot blot; remark: listed apart in the source

Row | Binder | binding [1] | binding [2] | binding (BSA [3]) | binding (BSA [4])
1 | B1 | binds weakly | binds weakly |  | 
2 | B2 |  |  | no binding (tested: 200 nM) | no binding (tested: 200 nM)
3 | B3 |  |  | no binding (tested: 200 nM) | no binding (tested: 200 nM)
4 | B4 | binds weakly | binds weakly |  | 

Source: paper doi:10.1101/2023.03.09.531943
